Measurements published in PubChem BioAssay AID2685 (National Center for Advancing Translational Sciences (NCATS), 2010).
Some of the results follow. Shown are side measurements of this screen, not its main read-out; they come without a call. The list favours compounds with an active or inconclusive main result. The note in brackets gives the kind of curve behind each potency; many fits are weak.

Experiment: qHTS Assay for Lipid Storage Modulators in Drosophila S3 Cells;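 as to cell number change: cells counted by Cell Tracker Red CMTPX staining in the red channel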
Conditions: BODIPY lipid droplet fluorescence, 18-24 h; for cell number change: measured here: cell count max response, cells fed with added oleic acid
How it was run: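 Laser-scanning cytometry quantifies lipid droplet accumulation (500–530 nm total intensity; droplet/cell object ratio) in oleic acid-fed (400 uM added) Drosophila S3 cells treated with a concentration series. 20 uM Triacsin C defined 100% inhibition.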

[1] = measured here: cell number channel AC50, cells fed with added oleic acid
[2] = measured here: lipid fluorescence (Fed channel) AC50, cells fed with added oleic acid

| SMILES | cell number change [%] | AC50 [1] | AC50 [2] |
| --- | --- | --- | --- |
| CC(Sc1nc2ccccc2c(=O)n1C)C(=O)N(C)C1CCCCC1 (configuration not stated) | -30.2 | 16.4 µM [falling, single point] | 29.1 µM [falling, single point] |
| O=C(NC1CC2CCCC(C1)N2Cc1ccco1)NC12CC3CC(CC(C3)C1)C2 (configuration not stated) | 3.6 |  |  |
| Cc1ccc(-c2[nH]nc(N)c2N=Nc2cccc(Cl)c2C)cc1 | -61.4 | 16.4 µM [falling, partial curve, poor fit] |  |
| Cc1cc(C)cc(-n2ncc3c2CCCC3NC(=O)CN2CCCC2=O)c1 (configuration not stated) | -21.8 |  | 29.1 µM [falling, single point] |
| Cc1ccc(S(=O)(=O)c2nnn3c2nc(N2CCCCC2)c2ccccc23)cc1 | 5.94 | 0.461 µM [rising, partial curve, poor fit] | 5.17 µM [rising, full curve] |
| Cc1nn(Cc2c(F)c(F)c(F)c(F)c2F)c(C)c1NC(=O)c1cccc(COc2ccc(Cl)cc2)c1 | 18 |  | 7.31 µM [rising, single point] |
| CC(=N\NC(=O)c1cc(Br)ccc1O)/C(=N/O)C(=O)Nc1ccccc1 | -17.7 |  | 6.51 µM [rising, single point] |
| CCOC(=O)NC(=O)COC(=O)CCCc1nc2ccccc2s1 | -15.9 |  | 0.00461 µM [falling, full curve, poor fit] |
| Cc1cc(C)cc(-n2c(C)cc(/C=C3\C(=N)N4N=C(CC(C)C)SC4=NC3=O)c2C)c1 | -24.1 |  | 29.1 µM [falling, partial curve] |
| CCOc1ccccc1CN1C(=O)c2ccccc2C1C(=O)NC(C)CC (configuration not stated) | -11.2 |  | 20.6 µM [rising, single point] |
| COc1ccc(Cl)cc1NC(=O)CN(C)CC(=O)N1CC(=O)Nc2ccccc21 |  |  | 0.259 µM [falling, full curve] |
| O=C(O)CCC(C(=O)O)n1c(O)c(C2=c3ccccc3=NC2=O)sc1=S (configuration not stated) | -8.79 |  | 0.58 µM [falling, full curve] |
| COC1CCN(C(=O)c2cc(COc3ccc(-n4cncn4)cc3)on2)CC1 | 79.9 | 14.6 µM [rising, partial curve] | 20.6 µM [rising, partial curve] |
| CCNC(=S)NC1CC2CCCC(C1)N2Cc1ccc(C)cc1 (configuration not stated) | 2.89 |  |  |
| O=C(NCCN1CCCC1)c1ccc(Cl)cc1 | -3.37 |  | 1.64 µM [falling, partial curve] |
| Cc1cccc(NC(=O)CSCC(=O)Nc2ccccc2N2CCCCC2)c1 | 12.9 | 0.326 µM [rising, full curve, poor fit] | 0.411 µM [rising, full curve] |
| O=C(CN(C(=O)c1csnn1)c1ccccc1F)NC1CCCCC1 | 16 |  | 0.00517 µM [falling, full curve, poor fit] |
| CCOC(=O)c1ccc(NC(=S)N2CCSC2c2ccc(OC)cc2)cc1 (configuration not stated) | 16.7 |  | 23.1 µM [falling, partial curve, poor fit] |
| COC(=O)c1sccc1NC(=O)Cn1cnc2c1c(=O)n(C)c(=O)n2C | -9.91 |  | 29.1 µM [falling, single point] |

Rewritten with bars between the fields: part of the list above
SMILES | cell number change [%] | AC50 [1] | AC50 [2]
COc1ccc(Cl)cc1NC(=O)CN(C)CC(=O)N1CC(=O)Nc2ccccc21 |  |  | 0.259 µM [falling, full curve]
O=C(O)CCC(C(=O)O)n1c(O)c(C2=c3ccccc3=NC2=O)sc1=S (configuration not stated) | -8.79 |  | 0.58 µM [falling, full curve]
COC1CCN(C(=O)c2cc(COc3ccc(-n4cncn4)cc3)on2)CC1 | 79.9 | 14.6 µM [rising, partial curve] | 20.6 µM [rising, partial curve]
CCNC(=S)NC1CC2CCCC(C1)N2Cc1ccc(C)cc1 (configuration not stated) | 2.89 |  | 

(more compounds)

| SMILES | cell number change [%] | AC50 [1] | AC50 [2] |
| --- | --- | --- | --- |
| COc1cc(-c2ccccc2)[nH]c(=S)n1 | 4.57 |  | 29.1 µM [rising, single point] |
| COc1ccc(CN2C(=O)C(=O)N(CC(N)=O)C2=O)cc1 | 54 | 4.11 µM [rising, full curve, poor fit] | 3.26 µM [rising, full curve] |
| Cc1ccc2cc(/C=N/Nc3ccc(C(=O)O)cc3)c(Cl)nc2c1 | 53.8 | 16.4 µM [rising, partial curve, poor fit] | 0.0651 µM [rising, full curve, poor fit] |
| CCC(=O)Nc1nc2ccc3nc(C)sc3c2s1 |  |  | 0.58 µM [rising, full curve] |
| CCNC(=O)COC(=O)/C=C/c1cccc(F)c1 | 8.88 | 6.51 µM [rising, partial curve, poor fit] | 6.51 µM [rising, partial curve] |
| O=C(O)c1csc(-c2cccs2)n1 | -35.2 | 0.00461 µM [falling, full curve, poor fit] | 7.31 µM [falling, partial curve] |
| Cc1nc2ccccc2c(=O)n1NC(=O)C1CC1C (configuration not stated) | 15.1 |  |  |
| Cc1cc(C)nc(Nc2ccccc2Br)n1 | -36.3 | 18.4 µM [falling, partial curve] | 32.6 µM [falling, single point] |
| CCOC(=O)C1CCCN(C(=O)COC(=O)c2cc(=O)c3ccccc3o2)C1 (configuration not stated) | -23.2 | 0.13 µM [falling, full curve] | 0.13 µM [falling, full curve] |
| COc1cccc(CN2CC(C(=O)N(C)Cc3ccnc4ccccc34)CCC2=O)c1 (configuration not stated) | -10.7 |  | 4.61 µM [rising, full curve, poor fit] |
| Cc1ccc(O)c(-c2cc(-c3ccccc3C)[nH]n2)c1 | -79.2 | 18.4 µM [falling, partial curve] | 29.1 µM [falling, single point] |
| Cc1cc(Cl)ccc1NC(=O)CN1C(=O)CSc2ccc(S(=O)(=O)N3CCOCC3)cc21 | 38.7 | 0.013 µM [rising, full curve, poor fit] | 13 µM [rising, partial curve] |
| N=c1n(Cc2ccccc2)c2ccccc2n1CC(O)c1ccco1 (configuration not stated) |  |  | 0.058 µM [falling, full curve, poor fit] |
| CNC(=O)c1ccc(NC(=O)Nc2ccccc2)cc1 |  |  | 18.4 µM [rising, single point] |
| CCC(C)NC(=O)CSc1nc(-c2cccs2)cc(C(F)(F)F)n1 (configuration not stated) |  | 0.13 µM [rising, full curve, poor fit] | 0.326 µM [rising, full curve] |
| COc1cccc2sc(NNC(=O)C3COc4ccccc4O3)nc12 (configuration not stated) | 1.11 | 0.651 µM [falling, single point] |  |
| Cc1nnc(Sc2cc(NCCO)c([N+](=O)[O-])c3nonc23)s1 |  |  | 3.26 µM [falling, single point] |
| O=C1CC(=O)N(Cc2ccco2)C(=O)N1 | -25.6 |  | 4.61 µM [falling, full curve] |
| O=C(Cc1ccc(Cl)cc1)NNC(=O)C1CC=CCC1C(=O)O (configuration not stated) |  |  | 29.1 µM [falling, single point] |

| SMILES | cell number change [%] | AC50 [1] | AC50 [2] |
| --- | --- | --- | --- |
| CC(=O)N1CCN(c2cc(N3CCc4ccccc4C3)c(F)cc2[N+](=O)[O-])CC1 | 69.9 |  |  |
| COc1cc(/C(=C/c2ccccc2)c2ccccc2)c2c(c1)oc1ccccc12 | 40.8 | 4.61 µM [rising, partial curve, poor fit] | 29.1 µM [rising, single point] |
| C=CCn1c(COc2ccc(Cl)cc2)nnc1SCC(=O)c1c(N)n(C)c(=O)n(C)c1=O |  | 0.164 µM [rising, full curve, poor fit] |  |
| Cn1c2ccccc2c2cc([N+](=O)[O-])ccc21 | 4.59 | 0.206 µM [rising, full curve, poor fit] | 2.59 µM [rising, partial curve, poor fit] |
| COc1ccc(NC(=O)NC23CC4CC(CC(C4)C2)C3)cc1OC |  |  | 0.92 µM [rising, full curve] |
| CCOC(=O)c1cnn(-c2cc(C)cc(C)c2)c1N |  | 0.116 µM [rising, full curve, poor fit] | 0.103 µM [rising, full curve, poor fit] |
| O=C(c1ccc(CS(=O)(=O)c2ccc(Br)cc2)o1)N1CCN(c2ncccn2)CC1 | -49.9 | 11.6 µM [falling, partial curve, poor fit] |  |
| CCOCCCn1c(=S)[nH]c2cc(C(=O)NCCN(CC)CC)ccc2c1=O | 6.26 |  |  |
| Cn1c(=O)c2c(nc(NCCCO)n2C/C=C/c2ccccc2)n(C)c1=O |  |  | 11.6 µM [falling, partial curve] |
| O=C(COC(=O)CNC(=O)c1ccccc1F)Nc1cccnc1Cl | -20.8 |  |  |
| O=C(COc1ccc([N+](=O)[O-])cc1)NNC(=S)NC(=O)c1ccc(Br)cc1 | 93.5 | 18.4 µM [rising, partial curve] | 16.4 µM [rising, single point] |
| COc1ccc(C2C(C#N)=C(N)N(c3sc4c(c3C#N)CCCC4)C3=C2C(=O)CC(C)(C)C3)cc1 (configuration not stated) | 8.41 | 0.103 µM [rising, full curve, poor fit] |  |
| CCCCSc1nnc2n(CCc3ccccc3)c(=O)c3c4c(sc3n12)COC(C)(C)C4 | -22.2 | 0.651 µM [falling, full curve] | 29.1 µM [falling, single point] |
| CCCCOc1ccc(Cl)cc1CSc1nncn1N |  | 2.06 µM [rising, partial curve] | 6.51 µM [rising, single point] |
| COc1ccc(NC(=S)N2CCN(c3ncccn3)CC2)cc1 | 19.9 | 3.66 µM [rising, single point] | 29.1 µM [rising, single point] |
| CN=C(Nc1ccc(C)c(C)c1)SC1CC(=O)N(c2ccc(OC)cc2)C1=O (configuration not stated) | -6.53 |  | 0.0291 µM [falling, full curve, poor fit] |
| Cc1ccc(C(C2C(=O)CC(C)(C)CC2=O)C2C(=O)CC(C)(C)CC2=O)s1 | 11.2 |  |  |
| O=C(C1CCCCCC1)N1CC[C@@H](N2CCC(O)CC2)[C@H](O)C1 | -17.1 |  |  |
